Results on 4 substances are retold here after article PMC9770967, “Native holdup (nHU) to measure binding affinities from cell extracts” (Science Advances, 2022).

Series [1] has as its system SNX27_PDZ. The series can be described thus: AP-MS control pull-down on leftover resin, SNX27_PDZ bait, total SH-SY5Y extracts. Format: binding, human. The following applies: threshold 1 σ. Here is the method:
Leftover beads from nHU-MS experiments were washed three times immediately after the separation of the supernatant [10 resin volume in buffer containing 50 mM tris (pH 8.5), 150 mM NaCl, 1% Triton X-100, 10× cOmplete EDTA-free protease inhibitor cocktail, 2 mM EDTA, and 1 mM TCEP]. Then, the beads were washed two times [10 resin volume buffer containing 50 mM tris (pH 8.5), 150 mM NaCl, and 1 mM TCEP]. Last, captured protein was eluted from the resin in two steps, and the eluted fractions were pooled. For each elution, the beads were incubated for 30 min with three resin volume buffer containing 20 mM tris (pH 8.5), 100 mM NaCl, 500 μM TCEP, and 8 M urea. Between each step, the beads were separated by mild centrifugation, and the supernatant was removed by gentle pipetting.
The nHU samples were precipitated with trichloroacetic acid (TCA) 20% overnight at 4°C and centrifuged at 14,000 rpm for 10 min at 4°C. The protein pellets were washed twice with 1 ml of cold acetone and air-dried. The protein extracts were solubilized in 8 M urea, reduced with 5 mM TCEP for 30 min, and alkylated with 10 mM iodoacetamide for 30 min in the dark. Double digestion was performed at 37°C with 500 ng of endoproteinase Lys-C (Wako, Richmond, USA) for 4 hours, followed by fourfold dilution and an overnight digestion with 500 ng of trypsin (Promega, Charbonnieres les Bains, France). Peptide mixtures were then desalted on a C18 spin-column and dried on a speed vacuum.
Samples were analyzed using an Ultimate 3000 nano-RSLC coupled in line via a nano-electrospray ionization source, with an LTQ-Orbitrap ELITE mass spectrometer (Thermo Fisher Scientific, San Jose, CA) or with the Orbitrap Exploris 480 mass spectrometer (Thermo Fisher Scientific, Bremen, Germany) equipped with a high field asymmetric ion mobility spectrometry (FAIMS) module. […]

In a further series the test system is full-length SNX27. The series can be described thus: nHU-WB titration, full-length SNX27 bait, total Jurkat extracts. Format: binding. Here is the method: The empty His6-AviTag-MBP-TEV vector was used to produce biotinylated MBP for control experiments. Proteins were coexpressed with BirA biotin ligase (PET21a-BirA, Addgene, no. 20857) in Escherichia coli BL21(DE3) cells. At isopropyl-β-D-thiogalactopyranoside (IPTG) induction (1 mM IPTG at 18°C overnight), 50 μM biotin was added to the media. […] Lysates were frozen at -20°C before further purification steps. Lysates were sonicated and centrifuged for clarification. Expressed proteins were captured on in-house prepacked Ni-IDA (Protino Ni-IDA Resin, Macherey-Nagel, Duren, Germany) columns and were washed with at least 10 column volumes of cold wash buffer [50 mM tris (pH 7.5), 150 mM NaCl, and 2 mM β-mercaptoethanol] before elution with 250 mM imidazole. The Ni elution was collected directly on a preequilibrated amylose column (amylose high flow resin, New England Biolabs, Ipswich, MA). […] The concentration of proteins was determined by their ultraviolet absorption at 280 nm before aliquots were snap-frozen in liquid nitrogen and stored at -80°C. […] To saturate streptavidin resin with biotinylated proteins, 50 μl of streptavidin resin (Streptavidin Sepharose High Performance, Cytiva) was mixed with biotinylated MBP or MBP-PDZ at 40 to 50 μM concentration in 20× resin volume for 60 min. […] Last, resins were washed two times (10 resin volume, holdup buffer). […]

Another series concerns HA-tagged SNX27. In words: Colocalization (immunostaining) in U2OS cells expressing HA-tagged SNX27 or SNX27_ΔPDZ. Format: cell-based. The following applies: SNX27 vs SNX27_ΔPDZ, confocal, single-cell PCC, n > 20.
Series [2] has as its system SNX27_PDZ. In words: nHU-WB at various incubation times, SNX27_PDZ bait, Jurkat lysates. It is filed as binding. The following applies: 15, 30, 120 and 240 min; 10 μM bait.
Series [3] deals with isolated PDZ domains (SNX27, TAX1BP3, SCRIB PDZ_1, SCRIB PDZ_2, DLG1 PDZ_1, DLG1 PDZ_2). In words: nHU-MS with six isolated PDZ domain baits / summary of nHU-MS experiments. Format: binding, human. The following applies: Jurkat extract.

Entries after “also recorded” stand apart in the source; their conditions may differ.

In the case of ELOC: Elongin-C, the BINDER_AP result with SNX27_PDZ [1] is given as “DOES NOT BIND”.
With KARS1: Lysine--tRNA ligase, in the series with SNX27_PDZ [1], the BINDER_AP result was “DOES NOT BIND”.
On the same count and under the same terms, the same measure for VTN: Vitronectin: “DOES NOT BIND”.
Consider “Vimentin: intermediate filament-forming Vimentin, endogenous full-length prey”, for which the affinity ranking entry in the series with full-length SNX27 (full-length SNX27) was “stronger than with SLC16A1”. Also, in the series with full-length SNX27 (titration), the binding mechanism entry was “positive cooperative binding mechanism”. In the series on HA-tagged SNX27, the “colocalization with SNX27” value was “not enriched in these SNX27 foci”. In the series with SNX27_PDZ [2], the “effect of prolonged incubation time on BI” value is recorded as “No detectable change; also recorded: did not observe significant change”. In series [3], the “interaction with isolated PDZ domains” value is given as “detectable interaction with four different PDZ domains, yet SNX27_PDZ was its strongest binder”.
